Test results reported in the supplement of paper PMC10689618.
This is one part of the list. Repeats are few or missing, and single values can be far off.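 Labelled rat cortical synaptosomes were engulfed by primary human fetal astrocytes. Engulfment equaled a red/green ratio, corrected for calcein live-cell signal and normalized to the plate median. Compounds were toxic when calcein dropped over 30%, and reduced phagocytosis when below 70% of the median above 5 µM.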

What follows are molecules tested on Human fetal astrocytes (assay: loss of total cells relative to no-compound high-control median (toxicity); higher = more toxic (fewer cells)). Settings: 1.39 µM; 24 h.
For `CC(C(=O)O)c1ccc(C(=O)c2cccs2)cc1` (centres undefined), the “loss of total cells” value was -22.4%. `CN1CC(=O)NC1=N` was tested, and the “loss of total cells” value was 17%. In the case of `C=C[C@@H](C1=CC(=O)C(OC)=C(OC)C1=O)c1ccccc1`, the “loss of total cells” value was 4.7%. For `C[C@]12CCC(=O)C=C1CC[C@@H]1[C@@H]2[C@@H](O)C[C@@]2(C)[C@H]1CC[C@]2(O)C(=O)COP(=O)(O)O`, the “loss of total cells” value was 12.2%. With `C[N+](C)(C)C[C@H](O)CC(=O)[O-]` the “loss of total cells” value was 33.9%. With `C[C@H]1COC2=C1C(=O)C(=O)c1c2ccc2c1CCCC2(C)C` the “loss of total cells” value was -16.4%. `NC[C@H]1CC[C@H](C(=O)O)CC1` was tested, and the “loss of total cells” value was 14.9%. For `COc1ccc(-c2cc(=O)c3c(O)cc(OC)c(OC)c3o2)c(OC)c1`, the “loss of total cells” value was -17.2%. For `COc1cc(O)c(C(C)=O)c(O)c1`, the “loss of total cells” value was -4.1%. In the case of `COc1ccc([C@H]2Oc3cc(OC)cc(OC)c3C[C@H]2O)cc1`, the “loss of total cells” value was -9.8%. In the case of `O=C(O)[C@H](O)[C@@H](O)[C@H](O[C@@H]1O[C@H](CO)[C@H](O)[C@H](O)[C@H]1O)[C@H](O)CO`, the “loss of total cells” value was 8.3%. For `CCOc1ccc(NC(=O)CC(C)O)cc1` (centres undefined), the “loss of total cells” value was 11.9%. `Cc1ccc(S(=O)(=O)NC(=O)NN2CCCCCC2)cc1` [Tolazamide] was tested, and the “loss of total cells” value was -16.6%. In the case of `c1ccc(CN(CC2=NCCN2)c2ccccc2)cc1`, the “loss of total cells” value was 5%. In the case of `CC(C)(C)NCC(O)c1cc(O)cc(O)c1` (centres undefined), the “loss of total cells” value was -15.1%. With `CC(C)(Oc1ccc(CCNC(=O)c2ccc(Cl)cc2)cc1)C(=O)O` the “loss of total cells” value was 17.4%. With `O=C(O)CS` the “loss of total cells” value was -15.6%. With `NC(=O)N1c2ccccc2CC(=O)c2ccccc21` [Trileptal] the “loss of total cells” value was 16.9%. With `CC(C)=CCC[C@@H](C)[C@@H]1CC[C@]2(C)C3=C(CC[C@@]12C)[C@@]1(C)CC[C@H](O)C(C)(C)[C@@H]1CC3` the “loss of total cells” value was 1.8%.
